Data on 11 molecules can be found in US10450368.

No constants are given. Whether binding was seen depends on the method and setting. For some assays here: Binding can be weak; no strength is given.

For experiment [1], the target named is CH505.TF mutant gp120 M20 (HIV-1). The experiment can be described thus: ELISA. (In an ELISA, binding on a coated surface is turned into a signal by an enzyme label.)
The target in experiment [2] is CH505.TF mutant gp120 M8 (HIV-1). The experiment can be described thus: ELISA.
The target of experiment [3] is CH505.TF mutant gp120 M6 (HIV-1). Kind of experiment: direct-binding ELISA (OD450), panel 'CH505.TF gp120 M6'.
The target in experiment [4] is CH505.TF mutant gp120 M8 (HIV-1). Kind of experiment: direct-binding ELISA (OD450), panel 'CH505.TF gp120 M8'.
The target in experiment [5] is RNP (ribonucleoprotein). Kind of experiment: condition: <100 relative luminescence units; up to 50 ug/ml; AtheNA Multi-Lyte ANA.
In experiment [6] the target is CH505.TF mutant gp120 M6 (HIV-1). The experiment can be described thus: ELISA of B cell culture supernatant.
The target of experiment [7] is RNP (ribonucleoprotein). Kind of experiment: ELISA, LogAUC grade.
For experiment [8], the target named is SSA. Kind of experiment: ELISA, LogAUC grade.
Experiment [9] deals with Sm (Smith antigen). The experiment can be described thus: ELISA, LogAUC grade.
Experiment [10] has as its target SSA. Kind of experiment: condition: <100 relative luminescence units; up to 50 ug/ml; AtheNA Multi-Lyte ANA.
Experiment [11] addresses Sm (Smith antigen). The description is as above.

B1: CH491 (antibody, V domains shown)
VH: QVQLVQSGAAVKRPGASVTISCRASGYTFTTYYIHWVRQAPGQGLELMGWINPRGGRTDYSYRFEDRVSMYRDTSMSIVYMDLRNLKSADTAVYYCVRNVGTSGSLLHYDFWGQGSLVTVSS
VL: EIVLTQSPATLSVSPGERVTLSCRASQSVRNNLAWYRQKRGQAPRLLIYGASTRATGIPARFSGSGSGTEFTLTISSMQSEDFAVYYCQQYNNWWTFGQGTKVEIK
As for B1, the binding result in [1] is “no binding (tested: 100 ug/ml)”; in experiment [2], “no binding (tested: 100 ug/ml)”; in [3], “binds”; in experiment [4], “no binding (tested: 100 ug/ml)”.

B2: CH493 (antibody, V domains shown)
VH: QVRLLQYGGGVKRPGASMTISCVASGYNFNDYYIHWVRQAPGQGLELMGWIDPSGGRTDYAGAFGDRVSMYRDKSMNTLYMDLRSLRSGDTAMYYCVRNVGTAGSLLHYDHWGLGVMVTVSS
VL: B1 VL
As for B2, the binding result in experiment [3] and in [4] was “binds” each time.

B3: CH236 (antibody, V domains shown)
VH: QVQLVQSGAAVKRPGASVTISCRASGYTFTTYYIHWVRQAPGQRLELMGMIDPSRGRTDYAQKFQGRVTMSRDTSTSTLYMELRSLRPDDTALYYCVRNVGTEGSLLHYDYWGQGTLVTVSS
VL: B1 VL
As for B3, the results for the binding result (in [1]; in experiment [2]; in the experiment with RNP (ribonucleoprotein) [5]) were “no binding (tested: 100 ug/ml)”, “no binding (tested: 100 ug/ml)” and “no binding”, respectively.

B4: CH557 (antibody, V domains shown)
VH: QVRLAQYGGGVKRLGATMTLSCVASGYTFNDYYIHWVRQAPGQGFELLGYIDPANGRPDYAGALRERLSFYRDKSMETLYMDLRSLRYDDTAMYYCVRNVGTAGSLLHYDHWGSGSPVIVSS
VL: EIVLTQSPATLSASPGERVTLTCRASRSVRNNVAWYQHKGGQSPRLLIYDASTRAAGVPARFSGSASGTEFTLAISNLESEDFTVYFCLQYNNWWTFGQGTRVDIK
With B4, the binding entry in [1] is “no binding (tested: 100 ug/ml)”; in [6], “binds”.

B5: CH235.13 (antibody, V domains shown)
VH: QVQLVQSGGGVKRPGSTTTISCVASGYSFNDYYIHWVRQAPGQGLEVLGFIDPSNGRTNYAGAFGDRFSMYRDKSMETLYMDLRNLRSDDTAMYYCVRNVGTAGSLLHYDHWGTGSKIIVSS
VL: EIVLTQSPATLSASPGERVTLTCRASRGVRNNVAWYQHNVGQSPRLLIYDASTRAPGIPARFSGSASGTEFTLAISSIQSEDFTLYYCHQYNNWWTFGQGTRVDIN
For the molecule B5, the binding entry is on record as “no binding (tested: 100 ug/ml)” in [1]; “no binding (tested: 100 ug/ml)” in experiment [2]; “no binding” with RNP (ribonucleoprotein) [7]; “no binding” with SSA [8]; “no binding” with Sm (Smith antigen) [9].

B6: CH235 (antibody, V domains shown)
VH: QVQLVQSGAEVKKPGASVTVSCQASGYTFTNYYVHWVRQAPGQGLQLMGWIDPSWGRTNYAQNFQGRITMTRDTSTSTVYMEMRSLRSEDTAVYYCARNVATEGSLLHYDYWGQGTLVTVSA
VL: EIVLTQSPATLSVSPGERATLSCRASQSVRSNLAWYQQRPGQAPRLLIYGTSTRATGVPARFSGRGSGTEFTLAISSMQSEDFAVYLCLQYNNWWTFGQGTKVEIK
As to B6, the binding result in [1] was “no binding (tested: 100 ug/ml)”; in experiment [2], “no binding (tested: 100 ug/ml)”; in experiment [3], “binds”; in experiment [4], “no binding (tested: 100 ug/ml)”; with RNP (ribonucleoprotein) [5] it was “no binding”; in the experiment with SSA [10] it was “no binding”. Further, the binding entry with Sm (Smith antigen) [11] is listed as “no binding”.

B7: CH555 (antibody, V domains shown)
VH: QVQLVQSGATVKKPRASVTLSCRTSGYNFIDYFIHWVRRAPGQRLEVMGYIDPSRGRPDYAPNFRDRVSLYRDTSMSIVYLDLRDLTPDDTAIYYCVRSEGTEGTVLHYDHWGPGTRVTVSP
VL: EIVLTQSPDTLSASPGERVTLSCRASQSVGTKVAWYRHVRGQPPRLLIYGASTRAAGIPARFSGGGSGTNFTLIINNFQSEDFAEYLCQQYKSWWTFGQGTKVDNK
On to B7, for which the binding result in experiment [1] is given as “no binding (tested: 100 ug/ml)”; in experiment [2], “no binding (tested: 100 ug/ml)”; in the experiment with RNP (ribonucleoprotein) [7] it was “no binding”; in the experiment with SSA [8] it was “no binding”; with Sm (Smith antigen) [9], “no binding”.

B8: CH556 (antibody, V domains shown)
VH: QVQLVQSGGTVKSPGTSVTLSCKTSGYNFIDYYIHWVRRAPGQRPELMGYIDPSHGRPDYEGKFRDRISLYRDTSTSVVYMDVRGLRLDDTALYYCVRGGGVEVSSNHYDHWGPGTMVFVSP
VL: ETTLTQSPDTLSASPGERVTLSCRAAQSVGSQVAWFRHIRGQPPRLLISGASTRAAGVPARFSGSGSGTDFTLTISGMQSEDFAEYFCQQYHMWWTFGQGTRVDKN
In the case of B8, the binding result with RNP (ribonucleoprotein) [7], with SSA [8] and with Sm (Smith antigen) [9] was “no binding” in each case.

B9: CH490 (antibody, V domains shown)
VH: QVQLVQSGAAVKKPGASVRVSCKASGYTFTSSHIHWVRQAPGQALEWLGMIDPRFGRPTRPQKFQGRVTLTRDTYTTTVYMSLSSLTPEDTAVYYCARSVETSESYLHFDYWGQGTLVTVSS
VL: EIVLTQSPATLSVSPGERATLSCRASQSVRSNIAWYQQKPGQAPRLLIHGASTRATGIPGRFSGSGSGPEFTLAISSVQSEDFAVYYCQQYNDWWTFGQGTKVEIK
Consider B9, for which the binding entry in experiment [3] is “binds”; in [4], “no binding (tested: 100 ug/ml)”.

B10: CH492 (antibody, V domains shown)
VH: QVQLVQSGAAVKKPGASVRVSCKASGYTFTSSHIHWVRQAPGQGPEWMGMVDPRFGRPTYAQKFQGRVAMTRDIYTSTVYMDLRSLKSEDTAIYFCVRNAETEGSLLHIEYWGQGTRVTVSS
VL: B9 VL
Regarding B10, the binding result in experiment [3] and in [4] was “binds” in each case.

B11: CH241 (antibody, V domains shown)
VH: QVQLVQSGAAVKKPGASVRVSCKASGYTFTSSHIHWVRQAPGQGPEWMGMIDPSVGRPTTAGKFQGRVTMTRDRYTSTAYMDLSSLRSEDTAVYYCARSVETTGSLLYFDYWGQGTLITVSS
VL: B9 VL
With B11, the binding result in the experiment with RNP (ribonucleoprotein) [5], with SSA [10] and with Sm (Smith antigen) [11] was “no binding” each time.
